Some of these results come from one statement about several compounds together.
Assays:
splenic T cells = test: T cell proliferation inhibition (CFSE, FACS); type: cell-based, C57BL/6 mice; settings: 10 μM, 20 μM, 30 μM; T cells activated with CD3 and CD28 antibodies; FIGS. 1-22
[1] = system: T lymphocyte cell line Jurkat E6-1; test: Cytotoxicity (CCK-8 viability); type: cell-based; settings: 10-30 μM
Description: The cytotoxicities of the compounds of Examples 1-19 and Comparative Examples 1-3 to T lymphocyte cell line Jurkat E6-1 provided from the Korea Cell Line Bank were measured using a cell counting kit (CCK-8, Dojindo). After the cell line was allowed to grow in RPMI1640 medium supplemented with 10% FBS, 100 U/mL penicillin, and 100 μg/mL streptomycin, cells were plated in each well of a 96-well plate at a density of 2λ10^4 cells/well and treated with each of the compounds of Examples 1-19 and Comparative Examples 1-3. After culture in a 5% CO2 incubator at 37° C. for 20 h, CCK-8 solution was added to a concentration of 10%, followed by reculture in a 5% CO2 incubator at 37° C. for one and a half hours. The absorbance was measured at 450 nm (Reference: 650 nm) and was expressed in percent relative to the value […] from non-treated cells (viability 100%).
In Table 1, the number 100 corresponds to a viability of 100%.

SMILES | inhibitory effect on T cell proliferation (splenic T cells) | cytotoxicity (summary of Table 1) [1]
CCCCNC(=O)c1ccccc1Br [Comparative Example 3, reference compound] | insignificant inhibitory effects | 
CCCCCCNC(=O)c1ccccc1OC [Example 4] | superior inhibitory effects | very low cytotoxicities
CCCCCCCCCCCCNC(=O)c1ccccc1O [Example 7] | superior inhibitory effects | very low cytotoxicities
CCCCC(CC)CNC(=O)c1ccccc1F (stereo not drawn) [Example 8] | superior inhibitory effects | very low cytotoxicities
CCCCC(CC)CNC(=O)c1ccccc1Br (stereo not drawn) [Example 9] | superior inhibitory effects | very low cytotoxicities
CCCCCCCCCCNC(=O)c1ccccc1Br [Example 12] | superior inhibitory effects | very low cytotoxicities
C=CCCCCCCCCCNC(=O)c1ccccc1Br [Example 13] | superior inhibitory effects | very low cytotoxicities
CC(C)=CCC/C(C)=C/CNC(=O)c1ccccc1Br [Example 14] | superior inhibitory effects | very low cytotoxicities
C=CCCCCCCCCCNC(=O)c1ccccc1F [Example 15] | superior inhibitory effects | very low cytotoxicities
CC(C)=CCC/C(C)=C/CNC(=O)c1ccccc1F [Example 16] | superior inhibitory effects | very low cytotoxicities
CC(C)=CCC/C(C)=C/CC/C(C)=C/COC(=O)c1ccccc1Br [Example 17] | superior inhibitory effects | very low cytotoxicities

Source: patent US20240307340A1, “IMMUNOSUPPRESSIVE PHARMACEUTICAL COMPOSITION INCLUDING BENZENE DERIVATIVE AS IMMUNOSUPPRESSANT” (INJE UNIVERSITY INDUSTRY-ACADEMIC COOPERATION FOUNDATION, priority 2021, published 2024)
